# Data from PubChem BioAssay AID1671190 (National Center for Advancing Translational Sciences (NCATS), 2021).
# Amino acid sequences for entries named in this document (tags omitted). A change or cut given only in a name is not applied to a line headed by its entry.
# UniProt P18054: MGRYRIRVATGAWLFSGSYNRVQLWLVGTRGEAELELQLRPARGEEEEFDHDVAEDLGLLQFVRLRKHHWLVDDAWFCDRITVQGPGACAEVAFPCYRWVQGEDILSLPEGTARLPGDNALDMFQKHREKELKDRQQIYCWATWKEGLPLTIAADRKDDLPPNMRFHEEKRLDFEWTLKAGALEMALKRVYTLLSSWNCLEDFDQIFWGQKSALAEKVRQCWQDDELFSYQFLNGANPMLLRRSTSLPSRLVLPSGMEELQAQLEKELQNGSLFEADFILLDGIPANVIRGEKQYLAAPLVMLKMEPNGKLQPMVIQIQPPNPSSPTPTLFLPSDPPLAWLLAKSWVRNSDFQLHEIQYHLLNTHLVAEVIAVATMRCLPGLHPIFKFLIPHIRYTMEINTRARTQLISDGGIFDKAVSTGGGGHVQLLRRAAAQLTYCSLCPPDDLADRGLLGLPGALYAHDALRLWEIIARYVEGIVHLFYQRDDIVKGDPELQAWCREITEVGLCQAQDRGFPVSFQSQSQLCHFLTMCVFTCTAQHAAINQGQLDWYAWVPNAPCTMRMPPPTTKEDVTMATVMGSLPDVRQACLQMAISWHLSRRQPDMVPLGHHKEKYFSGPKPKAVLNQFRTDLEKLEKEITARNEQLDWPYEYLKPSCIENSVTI
# About 6,100 (1.1%) of roughly 580,000 compounds were called active. This list was built around the results that the source calls inconclusive (neither active nor inactive); the mix of calls is not that of the screen. Calls follow the shape of the dose curve; as a rule, active = well fitted inhibition curve with a large enough effect; inconclusive = small, poorly fitted or top-dose-only effect, or another doubt; inactive = no such curve, though single readings can be large or run the other way. Where the call is inconclusive, the potency comes from a doubtful curve fit.
# Biological target: Polyunsaturated fatty acid lipoxygenase ALOX12 (Homo sapiens) (UniProt P18054)
# Test: Primary qHTS assay for inhibitors of human arachidonate 12S-lipoxygenase (ALOX12): Round 2
# Conditions: purified 12hLO, xylenol orange hydroperoxide absorbance; activity change, negative = inhibition: at 108 µM (top of the series) unless noted
# In short: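 Hydroperoxide product was detected by ferrous iron/xylenol orange as the 573 to 405 nm absorbance ratio. Arachidonic acid at 40 uM (final) was turned over for 30 min at room temperature by 150 nM human 12hLO, pH 7.0 Hepes buffer, after 15 min compound preincubation.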
# % is scaled to controls: 0 for no effect and ±100 for the full control effect; potency is read from the fitted curve at half-maximal effect.
Structure (SMILES),Potency,"activity change, negative = inhibition"
COc1ccc(C(O)c2ncc(-c3ccc(Cl)cc3)[nH]2)cc1 (stereo not given),"inconclusive: 79.4 µM [inhibitor, single point]",
CC(Sc1nc2ccc(F)cc2c(=O)[nH]1)C(=O)NC1CCCCC1 (stereo not given),"inconclusive: 3.98 µM [inhibitor, full curve, poor fit]",
CCC1(c2ccc(NC(=O)c3cc(OC)c(OC)c(OC)c3)cc2)CCC(=O)NC1=O (stereo not given),"inconclusive: 31.6 µM [inhibitor, partial curve]",
COC(=O)C1CCN(C(=O)COC(=O)CNS(=O)(=O)c2ccc(SC)c([N+](=O)[O-])c2)CC1,"inconclusive: 15.8 µM [inhibitor, partial curve, poor fit]",
O=C(O)CNc1ccccc1C(=O)O,,inactive: -0.0049%
CCCC(C(=O)Nc1c(C)cccc1C)N1C(=O)C(=O)c2ccccc21 (stereo not given),active: 6.31 µM,
Cc1ccc(-c2cc(C(F)(F)F)c(C#N)c(SCCC#N)n2)o1,"inconclusive: 11.2 µM [inhibitor, full curve]",
CCCN1CCN(C(=O)c2cccc(C(F)(F)F)c2)CC1,"inconclusive: 100 µM [inhibitor, single point]",
Cc1cc(NC(=O)CSc2nc3c(sc4ccccc43)c(=O)n2CCCN2CCOCC2)n[nH]1,,inactive: -5.09%
Cc1nn(CCc2n[nH]c(=S)n2-c2cccc(Cl)c2)c(C)c1[N+](=O)[O-],"inconclusive: 25.1 µM [inhibitor, partial curve, poor fit]",
CCc1c(C(=O)NCc2ccccc2Cl)[nH]c(C)c1C(C)=O,,inactive: -8.77%
COc1ccc2oc(=O)c(-c3csc(Nc4ccccc4)n3)cc2c1,"inconclusive: 28.2 µM [inhibitor, partial curve, poor fit]",
O=C1CCC(C(=O)N2CCCCO2)CN1Cc1ccc(Cl)cc1 (stereo not given),"inconclusive: 100 µM [inhibitor, partial curve, poor fit]",
Cc1ccc(S(=O)(=O)C(C#N)c2nc3ccccc3nc2N2CCN(C)CC2)cc1C (stereo not given),"inconclusive: 39.8 µM [inhibitor, partial curve]",
COc1cc2[nH]c(=S)n(NC(=O)CC(C)C)c(=O)c2cc1OC,"inconclusive: 0.708 µM [inhibitor, full curve, poor fit]",
CS(=O)(=O)N1CCOc2ccc(CCC(=O)N3CCCCC3)cc2C1,,inactive: 35.1%
Cc1ccc(-c2nnc(Cc3ccc(Cl)cc3)o2)cc1,"inconclusive: 39.8 µM [inhibitor, partial curve]",
COc1ccc(C2=CC(c3ccc(OC)c(OC)c3)n3nnnc3N2)cc1 (stereo not given),"inconclusive: 25.1 µM [inhibitor, full curve, poor fit]",
O=C(Cn1ccn2nc(-c3ccccc3)c(CO)c2c1=O)Nc1ccc(Cl)cc1F,"inconclusive: 56.2 µM [inhibitor, partial curve]",
COc1ccc(OCCn2cc(C(=O)c3ccco3)c3ccccc32)cc1,,inactive: -1.76%
CCC(=O)N1CCc2cc(S(=O)(=O)NC(Cc3ccccc3)C(=O)NCc3ccc(C)cc3)ccc21 (stereo not given),"inconclusive: 70.8 µM [inhibitor, partial curve, poor fit]",
CC(=O)Nc1ccc(Nc2nc(-c3sc(NC(C)=O)nc3C)cs2)cc1,"inconclusive: 7.94 µM [inhibitor, full curve]",

# Some of the entries so far, with bars between the fields:
Structure (SMILES) | Potency | activity change, negative = inhibition
COc1ccc(C(O)c2ncc(-c3ccc(Cl)cc3)[nH]2)cc1 (stereo not given) | inconclusive: 79.4 µM [inhibitor, single point] | 
CCC1(c2ccc(NC(=O)c3cc(OC)c(OC)c(OC)c3)cc2)CCC(=O)NC1=O (stereo not given) | inconclusive: 31.6 µM [inhibitor, partial curve] | 
COC(=O)C1CCN(C(=O)COC(=O)CNS(=O)(=O)c2ccc(SC)c([N+](=O)[O-])c2)CC1 | inconclusive: 15.8 µM [inhibitor, partial curve, poor fit] | 
O=C(O)CNc1ccccc1C(=O)O |  | inactive: -0.0049%
CCCC(C(=O)Nc1c(C)cccc1C)N1C(=O)C(=O)c2ccccc21 (stereo not given) | active: 6.31 µM | 
Cc1ccc(-c2cc(C(F)(F)F)c(C#N)c(SCCC#N)n2)o1 | inconclusive: 11.2 µM [inhibitor, full curve] | 
CCCN1CCN(C(=O)c2cccc(C(F)(F)F)c2)CC1 | inconclusive: 100 µM [inhibitor, single point] | 
CCc1c(C(=O)NCc2ccccc2Cl)[nH]c(C)c1C(C)=O |  | inactive: -8.77%
Cc1ccc(S(=O)(=O)C(C#N)c2nc3ccccc3nc2N2CCN(C)CC2)cc1C (stereo not given) | inconclusive: 39.8 µM [inhibitor, partial curve] | 
CS(=O)(=O)N1CCOc2ccc(CCC(=O)N3CCCCC3)cc2C1 |  | inactive: 35.1%
Cc1ccc(-c2nnc(Cc3ccc(Cl)cc3)o2)cc1 | inconclusive: 39.8 µM [inhibitor, partial curve] | 
COc1ccc(C2=CC(c3ccc(OC)c(OC)c3)n3nnnc3N2)cc1 (stereo not given) | inconclusive: 25.1 µM [inhibitor, full curve, poor fit] | 
O=C(Cn1ccn2nc(-c3ccccc3)c(CO)c2c1=O)Nc1ccc(Cl)cc1F | inconclusive: 56.2 µM [inhibitor, partial curve] | 
COc1ccc(OCCn2cc(C(=O)c3ccco3)c3ccccc32)cc1 |  | inactive: -1.76%
CCC(=O)N1CCc2cc(S(=O)(=O)NC(Cc3ccccc3)C(=O)NCc3ccc(C)cc3)ccc21 (stereo not given) | inconclusive: 70.8 µM [inhibitor, partial curve, poor fit] | 
CC(=O)Nc1ccc(Nc2nc(-c3sc(NC(C)=O)nc3C)cs2)cc1 | inconclusive: 7.94 µM [inhibitor, full curve] | 

# Further records.

Structure (SMILES),Potency,"activity change, negative = inhibition"
O=C1NCCN2CC3(CCN(C(=O)Nc4ccc5c(c4)OCCO5)CC3)CC12 (stereo not given),,inactive: 155%
CCOC(=O)c1cc2c(=O)n3ccccc3nc2n(C(C)C)c1=NC(=O)c1ccncc1,"inconclusive: 56.2 µM [inhibitor, partial curve, poor fit]",
COc1ccccc1CNc1ncnc2cc(OC)c(OC)cc12,"inconclusive: 63.1 µM [inhibitor, partial curve, poor fit]",
CC(C)c1ccc(NC(=O)CSC2=Nc3ccccc3C3=NC(CCC(=O)NCc4ccc(F)cc4)C(=O)N23)cc1 (stereo not given),"inconclusive: 126 µM [inhibitor, partial curve, poor fit]",
CCN1CCN(C(=O)c2ccc3c(c2)N(Cc2c(F)cccc2Cl)C(=O)c2ccccc2S3)CC1,,inconclusive: -33.2% [inhibitor]
CC(C)NC(=O)CSCc1ccccc1Cl,"inconclusive: 79.4 µM [inhibitor, partial curve, poor fit]",
COc1ccc(C(CC(=O)N2CCCCC2)c2c(OC)cc(OC)c3ccc(=O)oc23)cc1 (stereo not given),"inconclusive: 44.7 µM [inhibitor, partial curve, poor fit]",
COc1ccc(NC(=O)COC(=O)c2ccco2)c([N+](=O)[O-])c1,,inactive: -2.59%
COC(=O)c1cccc(-n2sc3ccccc3c2=O)c1,active: 1.26 µM,
Cc1[nH]c2ccc(C(=O)OC(C)C(=O)NCc3ccccc3)cc2c1C (stereo not given),"inconclusive: 158 µM [inhibitor, partial curve, poor fit]",
Cc1ccc(-n2nc(C(=O)O)nc2-c2ccccc2)cc1,"inconclusive: 35.5 µM [inhibitor, single point]",
CC1=C(C(=O)N(C)C)CC(CC(=O)NCC2CCCCC2)C(=O)N1Cc1ccc(F)cc1 (stereo not given),"inconclusive: 39.8 µM [inhibitor, partial curve, poor fit]",
O=C(NCc1ccccc1)C1CCCN(C(=O)NCc2ccccc2)C1 (stereo not given),,inactive: 1.56%
O=c1c(-c2ccc([N+](=O)[O-])cc2)coc2c(O)c(O)ccc12,active: 6.31 µM,
CCOC(=O)c1ccccc1NC(=O)c1ccc2c(SCC(=O)O)c3c(nc2c1)CCCC3,"inconclusive: 39.8 µM [inhibitor, partial curve]",
CCOc1cccc(CNCc2cccnc2)c1OCc1ccc(C)cc1,"inconclusive: 35.5 µM [inhibitor, partial curve]",
COC(=O)C1=C(C)NC(=O)CC1c1c(F)cccc1Cl (stereo not given),"inconclusive: 5.62 µM [inhibitor, full curve, poor fit]",
C[C@@H]1CN([C@H](C)CO)S(=O)(=O)c2ccc(C#Cc3ccccc3)cc2O[C@H]1CN(C)C(=O)Nc1ccc2c(c1)OCO2,,inactive: -13.1%
CCOC(=O)C(=O)N1CCN(c2nc(-c3ccc(Cl)cc3)cs2)CC1,,inactive: -27.2%
CC1CCCN(c2ccc(C=O)cc2)C1 (stereo not given),"inconclusive: 7.08 µM [inhibitor, full curve, poor fit]",
O=C(CCC(=O)c1ccc(F)cc1)OCc1nnc(-c2ccc([N+](=O)[O-])cc2)o1,,inactive: -5.32%
O=C(c1ccc(Cl)cc1)C(CN1CCCC1)c1ccccc1 (stereo not given),,inactive: 0.425%

Structure (SMILES),Potency,"activity change, negative = inhibition"
COc1cc(CNCCNC(=O)c2nonc2N)ccc1OCc1ccc(Cl)cc1,"inconclusive: 50.1 µM [inhibitor, partial curve, poor fit]",
C#C[C@]1(O)CC[C@H]2[C@@H]3CCC4=Cc5oncc5C[C@]4(C)[C@H]3CC[C@@]21C,"inconclusive: 9.07 µM [inhibitor, partial curve, poor fit]",
Fc1ccc(Nc2nc(-c3cccnc3)nc3ccccc23)cc1,"inconclusive: 126 µM [inhibitor, partial curve, poor fit]",
Cc1ccc(C2=NOC(=O)/C2=C\C=C\c2ccccc2)cc1,active: 1.12 µM,
N#Cc1ccc(S(=O)(=O)Nc2ccc3ccccc3n2)cc1,"inconclusive: 100 µM [inhibitor, single point]",
CCCCc1ccc(NC(=O)CN2C(=O)C(c3ccccc3)=NC23CCCC3)cc1,"inconclusive: 20 µM [inhibitor, full curve, poor fit]",
O=C(CS(=O)(=O)Cc1ccccc1C(F)(F)F)Nc1ccc(F)cc1F,"inconclusive: 89.1 µM [inhibitor, partial curve, poor fit]",
Cn1c(=O)c2c(ncn2CCC(=O)N/N=C/c2ccccc2)n(C)c1=O,"inconclusive: 112 µM [inhibitor, single point]",
CC(CCc1ccco1)NC(=O)CCc1nnc2ccc(NCc3ccccc3Cl)nn12 (stereo not given),,inactive: 12.8%
CC(=O)C1C(c2ccccc2Cl)NC(=O)NC1(O)C(F)(F)F (stereo not given),"inconclusive: 31.6 µM [inhibitor, full curve, poor fit]",
COc1ccc(-c2cc(C(=O)OCC(=O)N3CCCCC3)c3ccccc3n2)cc1OC,"inconclusive: 63.1 µM [inhibitor, partial curve, poor fit]",
O=C(c1ccccc1)C1OC1C(=O)c1ccccc1 (stereo not given),"inconclusive: 3.55 µM [inhibitor, full curve, poor fit]",
Nc1nc2c(s1)C(c1cccc(OCc3ccccc3F)c1)CC(=O)N2 (stereo not given),"inconclusive: 0.562 µM [inhibitor, full curve, poor fit]",
Cc1nnc(C)c2c(C)n(Cc3ccc4c(c3)OCO4)c(C)c12,,inactive: -24.6%
C/C(=N/Nc1ccc(S(N)(=O)=O)cc1[N+](=O)[O-])c1ccccc1,,inactive: -21.5%
CCOc1ccc2nc(Nc3ncc4c(n3)CCCC4=O)nc(C)c2c1,"inconclusive: 2.82 µM [inhibitor, full curve, poor fit]",
C(=N\N1CCN(Cc2cccc3ccccc23)CC1)/c1cccnc1,,inactive: 8.69%
O=C(CCc1ncc(-c2ccccc2F)o1)NCC(O)CN1CCOCC1 (stereo not given),"inconclusive: 100 µM [inhibitor, single point]",
COc1ccc(CNC2CCCC2)c(OC)c1OC,"inconclusive: 0.355 µM [inhibitor, full curve, poor fit]",
CCOC(=O)c1c(CSc2ccc(CC)cc2)oc2ccc(O)c(CN(C)C)c12,"inconclusive: 44.7 µM [inhibitor, partial curve, poor fit]",
CC(C)CCN1CCN(c2nc3c(c(=O)[nH]c(=O)n3C)n2Cc2ccc(Cl)cc2)CC1,"inconclusive: 100 µM [inhibitor, single point]",
